Reference: article PMC10914751
These are yes or no findings as the source states them, for the method shown. Binding seen in cells or lysates may run through a third protein. Here binding means that the protein was enriched with, or labelled near, the bait; the list need not be complete. Tags and fused reporters may be left off the sequences shown.

T1: FLAG-tagged Plk4 CTD (581–970) (UniProt O00444)
T1 sequence: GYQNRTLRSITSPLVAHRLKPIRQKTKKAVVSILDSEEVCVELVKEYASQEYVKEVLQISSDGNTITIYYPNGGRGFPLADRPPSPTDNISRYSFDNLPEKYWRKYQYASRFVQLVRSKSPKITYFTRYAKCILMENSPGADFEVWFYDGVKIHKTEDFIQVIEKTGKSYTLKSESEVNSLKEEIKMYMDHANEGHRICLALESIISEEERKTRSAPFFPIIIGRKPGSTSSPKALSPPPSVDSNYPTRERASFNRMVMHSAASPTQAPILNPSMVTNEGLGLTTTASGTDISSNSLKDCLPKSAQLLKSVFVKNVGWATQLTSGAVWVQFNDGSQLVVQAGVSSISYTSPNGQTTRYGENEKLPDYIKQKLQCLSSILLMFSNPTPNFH

T2: ZZ-tagged Plk4 CPB (581–884) (UniProt O00444)
T2 sequence: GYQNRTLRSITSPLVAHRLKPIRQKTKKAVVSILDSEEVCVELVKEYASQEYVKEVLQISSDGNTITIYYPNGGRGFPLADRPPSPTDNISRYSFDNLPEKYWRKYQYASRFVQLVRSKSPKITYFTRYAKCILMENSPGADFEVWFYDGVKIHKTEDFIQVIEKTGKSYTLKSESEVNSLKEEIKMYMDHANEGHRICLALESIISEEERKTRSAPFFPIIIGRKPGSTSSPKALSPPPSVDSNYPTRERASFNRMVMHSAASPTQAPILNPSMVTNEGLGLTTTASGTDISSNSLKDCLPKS

B1: Cep57 (endogenous) (protein, UniProt Q86XR8 1-500)
chain: MAAASVSAASGSHLSNSFAEPSRSNGSMVRHSSSPYVVYPSDKPFLNSDLRRSPSKPTLAYPESNSRAIFSALKNLQDKIRRLELERIQAEESVKTLSRETIEYKKVLDEQIQERENSKNEESKHNQELTSQLLAAENKCNLLEKQLEYMRNMIKHAEMERTSVLEKQVSLERERQHDQTHVQSQLEKLDLLEQEYNKLTTMQALAEKKMQELEAKLHEEEQERKRMQAKAAELQTGLETNRLIFEDKATPCVPNARRIKKKKSKPPEKKSSRNYFGAQPHYRLCLGDMPFVAGKSTSPSHAVVANVQLVLHLMKQHSKALCNDRVINSIPLAKQVSSRGGKSKKLSVTPPSSNGINEELSEVLQTLQDEFGQMSFDHQQLAKLIQESPTVELKDKLECELEALVGRMEAKANQITKVRKYQAQLEKQKLEKQKKELKATKKTLDEERNSSSRSGITGTTNKKDFMKLRPGEKRRKNLQLLKDMQSIQNSLQSSSLCWDY
B2: Cep63 (endogenous) (protein, UniProt Q96MT8 1-703)
chain: MEALLEGIQNRGHGGGFLTSCEAELQELMKQIDIMVAHKKSEWEGRTHALETCLKIREQELKSLRSQLDVTHKEVGMLHQQVEEHEKIKQEMTMEYKQELKKLHEELCILKRSYEKLQKKQMREFRGNTKNHREDRSEIERLTAKIEEFRQKSLDWEKQRLIYQQQVSSLEAQRKALAEQSEIIQAQLVNRKQKLESVELSSQSEIQHLSSKLERANDTICANELEIERLTMRVNDLVGTSMTVLQEQQQKEEKLRESEKLLEALQEEKRELKAALQSQENLIHEARIQKEKLQEKVKATNTQHAVEAIRPREESLAEKKYTSQGQGDLDSVLSQLNFTHTSEDLLQAEVTCLEGSLESVSATCKQLSQELMEKYEELKRMEAHNNEYKAEIKKLKEQILQGEQSYSSALEGMKMEISHLTQELHQRDITIASTKGSSSDMEKRLRAEMQKAEDKAVEHKEILDQLESLKLENRHLSEMVMKLELGLHEAKEISLADLQENYIEALNKLVSENQQLQKDLMNTKSQLEISTQMCKKQNDRIFKPTHSRTTEFKNTEFKPTHGQHRHDGIKTEHYKTDLHSPRGQASDSINPMSRVLSPLSPQISPCSSTRSLTSYSLCKTHSLPSALDTNEANFSDTMSESMNDQEEFISSCSLPVSPLGSIATRFLEEEELRSHHILERLDAHIEELKRESEKTVRQFTALK
B3: Cep135 (endogenous) (protein, UniProt Q66GS9 1-1140)
chain: MTTAVERKYINIRKRLDQLGYRQTLTVECLPLVEKLFSDLVHTTESLRQSKLSAVKAEKESANFDFVLEPYKLENARLSRENNELYLELMKLREHSDQHVKELKTSLKKCARETADLKFLNNQYAHKLKLLEKESKAKNERIQQLQEKNLHAVVQTPGGKKRSIAFRRQRMQIDEPVPPSEVSSYPVPQPDDPYIADLLQVADNRIQELQQEVHQLQEKLAMMESGVRDYSKQIELREREIERLSVALDGGRSPDVLSLESRNKTNEKLIAHLNIQVDFLQQANKDLEKRIRELMETKETVTSEVVNLSNKNEKLCQELTEIDQLAQQLERHKEEVLETADKELGEAKKEIKRKLSEMQDLEETMAKLQLELNLCQKEKERLSDELLVKSDLETVVHQLEQEKQRLSKKVESFAVTERQLTLEVERMRLEHGIKRRDRSPSRLDTFLKGIEEERDYYKKELERLQHIIQRRSCSTSYSAREKSSIFRTPEKGDYNSEIHQITRERDELQRMLERFEKYMEDIQSNVKLLTAERDKLSVLYNEAQEELSALRKESTQTTAPHNIVSLMEKEKELALSDLRRIMAEKEALREKLEHIEEVSLFGKSELEKTIEHLTCVNHQLESEKYELKSKVLIMKETIESLENKLKVQAQKFSHVAGDSSHQKTEVNSLRIVNEQLQRSVDDYQHRLSIKRGELESAQAQIKILEEKIDELNLKMTSQDEEAHVMKKTIGVIDKEKDFLQETVDEKTEKIANLQENLANKEKAVAQMKIMISECESSVNQLKETLVNRDREINSLRRQLDAAHKELDEVGRSREIAFKENRRLQDDLATMARENQEISLELEAAVQEKEEMKSRVHKYITEVSRWESLMAAKEKENQDLLDRFQMLHNRAEDWEVKAHQAEGESSSVRLELLSIDTERRHLRERVELLEKEIQEHINAHHAYESQISSMAKAMSRLEEELRHQEDEKATVLNDLSSLRELCIKLDSGKDIMTQQLNSKNLEFERVVVELENVKSESDLLKKQLSNERHTVKNLESLLATNRDKEFHSHLTSHEKDTEIQLLKEKLTLSESKLTSQSRENTMLRAKVAQLQTDYDALKRQISTERYERERAIQEMRRHGLATPPLSSTLRSPSHSPEHRNV

target: T1, FLAG-tagged Plk4 CTD (581–970); assay: affinity purification with mass spectrometry; FLAG-tagged Plk4 CTD(581–970) stably expressed in HEK293T cells, anti-FLAG immunoprecipitation; SDS-PAGE bands, nanoLC-tandem MS (Expt. 2)

| binding | Binder |
| --- | --- |
| binds | B1 |
| binds | B2 |
| binds | B3 |

target: T2, ZZ-tagged Plk4 CPB (581–884); assay: affinity purification with mass spectrometry; ZZ-tagged Plk4 CPB(581–884) in lysate of transfected HEK293T cells, human IgG column, AcTEV digestion, elution with TBSN buffer; SDS-PAGE bands, nanoLC-tandem MS (Expt. 1)

| binding | Binder |
| --- | --- |
| binds | B1 |
| binds | B2 |
| binds | B3 |
